In article PMC5302901:
Results are given in words; binding and its absence hold for the method and conditions named. Binding seen in cells or lysates may run through a third protein. Some binding calls cover weakened binding; strength is not graded here.

By UniProt entry, the sequences of proteins in these tests, tags left out. Residues count along the entry.
UniProt P20273, residues 20-847: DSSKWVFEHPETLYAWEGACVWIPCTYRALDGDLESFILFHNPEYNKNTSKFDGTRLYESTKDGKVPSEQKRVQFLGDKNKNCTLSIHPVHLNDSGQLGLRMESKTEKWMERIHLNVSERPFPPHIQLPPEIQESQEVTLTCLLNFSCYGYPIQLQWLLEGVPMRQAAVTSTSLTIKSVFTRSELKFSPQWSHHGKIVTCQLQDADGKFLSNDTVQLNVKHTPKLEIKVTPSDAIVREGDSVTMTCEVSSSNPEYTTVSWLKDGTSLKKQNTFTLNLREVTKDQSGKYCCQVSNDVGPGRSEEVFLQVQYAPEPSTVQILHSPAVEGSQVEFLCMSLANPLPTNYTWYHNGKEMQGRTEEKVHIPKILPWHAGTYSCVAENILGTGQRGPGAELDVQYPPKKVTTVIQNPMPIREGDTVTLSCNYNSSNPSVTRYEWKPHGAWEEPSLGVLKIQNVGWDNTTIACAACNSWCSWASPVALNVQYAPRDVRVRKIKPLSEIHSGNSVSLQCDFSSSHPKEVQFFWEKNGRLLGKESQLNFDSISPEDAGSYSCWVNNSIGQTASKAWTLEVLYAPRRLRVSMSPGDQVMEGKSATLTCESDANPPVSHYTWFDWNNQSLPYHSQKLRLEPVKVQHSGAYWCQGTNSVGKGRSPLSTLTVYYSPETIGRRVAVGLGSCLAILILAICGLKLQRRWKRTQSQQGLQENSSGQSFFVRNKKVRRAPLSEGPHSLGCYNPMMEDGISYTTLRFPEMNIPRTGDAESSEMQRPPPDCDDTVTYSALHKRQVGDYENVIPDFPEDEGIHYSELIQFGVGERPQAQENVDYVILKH
UniProt P62993: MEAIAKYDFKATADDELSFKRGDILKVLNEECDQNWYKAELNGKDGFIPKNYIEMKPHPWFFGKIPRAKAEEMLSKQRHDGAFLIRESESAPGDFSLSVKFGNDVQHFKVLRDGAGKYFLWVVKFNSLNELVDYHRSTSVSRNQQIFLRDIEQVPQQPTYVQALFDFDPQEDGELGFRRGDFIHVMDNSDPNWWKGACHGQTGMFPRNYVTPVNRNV
UniProt Q07883: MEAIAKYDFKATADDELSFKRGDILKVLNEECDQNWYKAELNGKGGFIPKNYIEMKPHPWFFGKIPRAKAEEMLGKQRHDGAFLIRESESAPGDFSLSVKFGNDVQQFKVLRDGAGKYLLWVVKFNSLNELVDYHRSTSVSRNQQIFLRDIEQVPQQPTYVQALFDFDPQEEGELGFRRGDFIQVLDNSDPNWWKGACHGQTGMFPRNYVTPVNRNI

Assays:
[1] = biological target: CD22 of normal human peripheral B cells (human (endogenous in peripheral B cells)) (UniProt P20273); experiment: co-IP; freshly isolated normal human B cells, with or without 5 ug/ml F(ab')2 anti-human IgM; 1% NP-40 lysate; IP of CD22, Grb2 or PMCA, blots of all three
[2] = biological target: Grb2 of normal human peripheral B cells (human (endogenous in peripheral B cells)) (UniProt P62993); experiment: condition: only without BCR activation (no anti-human IgM); co-IP; freshly isolated normal human B cells without BCR stimulation; IP of CD22, Grb2 or PMCA, blots of all three
[3] = biological target: Grb2 of normal human peripheral B cells (human (endogenous in peripheral B cells)) (UniProt P62993); experiment: co-IP; freshly isolated normal human B cells, with or without 5 ug/ml F(ab')2 anti-human IgM; 1% NP-40 lysate; IP of CD22, Grb2 or PMCA, blots of all three
[4] = biological target: Grb2 of DT40 cells (chicken (endogenous in DT40)) (UniProt Q07883); experiment: co-IP; normal DT40 cells transfected with CD22-WT or mutants, stimulated with 5 ug/ml F(ab')2 IgM for 2.5 min; IP of Grb2, blots of CD22 and PMCA

Row | Molecule | binding [4] | also measured
1 | Grb2 of normal human peripheral B cells (from UniProt P62993 1-217) | – | binding [1]: binds
2 | CD22 of normal human peripheral B cells (from UniProt P20273 20-847) (receptor) | – | binding [2]: no binding; binding [3]: binds
3 | mouse CD22-WT (receptor, UniProt P35329-1 22-868) SANDWTVDHPQTLFAWEGACIRIPCKYKTPLPKARLDNILLFQNYEFDKATKKFTGTVLYNATKTEKDPESELYLSKQGRVTFLGNRIDNCTLKIHPIRANDSGNLGLRMTAGTERWMEPIHLNVSEKPFQPYIQMPSEIRESQSVTLTCGLNFSCFGYDILLKWFLEDSEITSITSSVTSITSSVTSSIKNVYTESKLTFQPKWTDHGKSVKCQVQHSSKVLSERTVRLDVKYTPKLEIKVNPTEVEKNNSVTMTCRVNSSNPKLRTVAVSWFKDGRPLEDQELEQEQQMSKLILHSVTKDMRGKYRCQASNDIGPGESEEVELTVHYAPEPSRVHIYPSPAEEGQSVELICESLASPSATNYTWYHNRKPIPGDTQEKLRIPKVSPWHAGNYSCLAENRLGHGKIDQEAKLDVHYAPKAVTTVIQSFTPILEGDSVTLVCRYNSSNPDVTSYRWNPQGSGSVLKPGVLRIQKVTWDSMPVSCAACNHKCSWALPVILNVHYAPRDVKVLKVSPASEIRAGQRVLLQCDFAESNPAEVRFFWKKNGSLVQEGRYLSFGSVSPEDSGNYNCMVNNSIGETLSQAWNLQVLYAPRRLRVSISPGDHVMEGKKATLSCESDANPPISQYTWFDSSGQDLHSSGQKLRLEPLEVQHTGSYRCKGTNGIGTGESPPSTLTVYYSPETIGKRVALGLGFCLTICILAIWGMKIQKKWKQNRSQQGLQENSSGQSFFVRNKKARRTPLSEGPQSQGCYNPAMDDTVSYAILRFPESDTHNTGDAGTPATQAPPPNNSDSVTYSVIQKRPMGDYENVNPSCPEDESIHYSELVQFGAGKRPQAKEDVDYVTLKH | binds | –
4 | mouse CD22-F1/2/5/6 (receptor, UniProt P35329-1 22-868) SANDWTVDHPQTLFAWEGACIRIPCKYKTPLPKARLDNILLFQNYEFDKATKKFTGTVLYNATKTEKDPESELYLSKQGRVTFLGNRIDNCTLKIHPIRANDSGNLGLRMTAGTERWMEPIHLNVSEKPFQPYIQMPSEIRESQSVTLTCGLNFSCFGYDILLKWFLEDSEITSITSSVTSITSSVTSSIKNVYTESKLTFQPKWTDHGKSVKCQVQHSSKVLSERTVRLDVKYTPKLEIKVNPTEVEKNNSVTMTCRVNSSNPKLRTVAVSWFKDGRPLEDQELEQEQQMSKLILHSVTKDMRGKYRCQASNDIGPGESEEVELTVHYAPEPSRVHIYPSPAEEGQSVELICESLASPSATNYTWYHNRKPIPGDTQEKLRIPKVSPWHAGNYSCLAENRLGHGKIDQEAKLDVHYAPKAVTTVIQSFTPILEGDSVTLVCRYNSSNPDVTSYRWNPQGSGSVLKPGVLRIQKVTWDSMPVSCAACNHKCSWALPVILNVHYAPRDVKVLKVSPASEIRAGQRVLLQCDFAESNPAEVRFFWKKNGSLVQEGRYLSFGSVSPEDSGNYNCMVNNSIGETLSQAWNLQVLYAPRRLRVSISPGDHVMEGKKATLSCESDANPPISQYTWFDSSGQDLHSSGQKLRLEPLEVQHTGSYRCKGTNGIGTGESPPSTLTVYYSPETIGKRVALGLGFCLTICILAIWGMKIQKKWKQNRSQQGLQENSSGQSFFVRNKKARRTPLSEGPQSQGCFNPAMDDTVSFAILRFPESDTHNTGDAGTPATQAPPPNNSDSVTYSVIQKRPMGDYENVNPSCPEDESIHFSELVQFGAGKRPQAKEDVDFVTLKH | binds | –
5 | mouse CD22-F5/6 (receptor, UniProt P35329-1 22-868) SANDWTVDHPQTLFAWEGACIRIPCKYKTPLPKARLDNILLFQNYEFDKATKKFTGTVLYNATKTEKDPESELYLSKQGRVTFLGNRIDNCTLKIHPIRANDSGNLGLRMTAGTERWMEPIHLNVSEKPFQPYIQMPSEIRESQSVTLTCGLNFSCFGYDILLKWFLEDSEITSITSSVTSITSSVTSSIKNVYTESKLTFQPKWTDHGKSVKCQVQHSSKVLSERTVRLDVKYTPKLEIKVNPTEVEKNNSVTMTCRVNSSNPKLRTVAVSWFKDGRPLEDQELEQEQQMSKLILHSVTKDMRGKYRCQASNDIGPGESEEVELTVHYAPEPSRVHIYPSPAEEGQSVELICESLASPSATNYTWYHNRKPIPGDTQEKLRIPKVSPWHAGNYSCLAENRLGHGKIDQEAKLDVHYAPKAVTTVIQSFTPILEGDSVTLVCRYNSSNPDVTSYRWNPQGSGSVLKPGVLRIQKVTWDSMPVSCAACNHKCSWALPVILNVHYAPRDVKVLKVSPASEIRAGQRVLLQCDFAESNPAEVRFFWKKNGSLVQEGRYLSFGSVSPEDSGNYNCMVNNSIGETLSQAWNLQVLYAPRRLRVSISPGDHVMEGKKATLSCESDANPPISQYTWFDSSGQDLHSSGQKLRLEPLEVQHTGSYRCKGTNGIGTGESPPSTLTVYYSPETIGKRVALGLGFCLTICILAIWGMKIQKKWKQNRSQQGLQENSSGQSFFVRNKKARRTPLSEGPQSQGCYNPAMDDTVSYAILRFPESDTHNTGDAGTPATQAPPPNNSDSVTYSVIQKRPMGDYENVNPSCPEDESIHFSELVQFGAGKRPQAKEDVDFVTLKH | binds | –
